Results are given in words; binding and its absence hold for the method and conditions named. Binding seen in cells or lysates may run through a third protein. A yes stands for co-enrichment or nearness to the bait. Other partners may have been found.

Chains of the proteins cited; added tags and fusions are not shown. Lines headed by an entry give the natural chain unless they say otherwise; changes in a name come on top.
UniProt Q93640: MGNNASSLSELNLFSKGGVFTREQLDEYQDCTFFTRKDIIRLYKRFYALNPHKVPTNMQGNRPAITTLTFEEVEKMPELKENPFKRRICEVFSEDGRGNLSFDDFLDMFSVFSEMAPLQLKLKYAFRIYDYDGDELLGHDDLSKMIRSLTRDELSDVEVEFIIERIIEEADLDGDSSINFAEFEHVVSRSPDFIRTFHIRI

Results on one molecule are retold here after paper PMC7343241.

Assay [1] deals with CALM-1::FLAG (transgenic worms) (C. elegans). Kind of assay: affinity purification with mass spectrometry; FLAG-tagged CALM-1 from whole lysates of transgenic worms on anti-FLAG M2 magnetic beads; FLAG::GFP as negative control.
The target of assay [2] is FLAG::CALM-1 (transgenic worms) (C. elegans) (UniProt Q93640). The assay is described as above.

B1: TMC-2 (endogenous, worm lysate) (protein, UniProt Q11069 1-1203)
chain: MPKSGAHQPLVRHDTDDGGETGQSVKSLADVSEEEIDSRMSRRSSVIADLLSLFRRSSSVLVRPHTRLGNPNFDDDDDEFDEEDDKEASKDRILKKIQQKKEIIQKLRGQPWYMKRKRRTLKVAQKHLQQQEAKVSKARLYKAEAGRRLTQASRWLDNLKIYLIPWEAKIRKIESHFGSVVSSYFTFHRWVLGVNITITFIMCMFVVIPEWLADSRTQFGDDRYNKTKAIKVMPPAVRARADELSTVWDFGGYFQYSLLFYGFYSKETFFGETIKYRVPVAYFFCNIFILGFSLFIILRKMAANNRRGTLSSGKTQQYLFNWKAFTGWDYTIGNPETAGNVYMANVIKFREAINDDKQKPSDKHPWIRFVARVLTNLFICAMYVFSIWAIMQCGTLKGEHFFAQNATAITISLITLVFPNIFDLLGKIEKLHPRNALRFQLGRVLVLYILNYYTLIYSLMLQLEHLQKEKNASDNPISALGHPGDAIGRTIRETVLPRYPVDNNPHTYYSYAPVTTTPIPATSSWTTVLPDFGPFGVYNPKASVTKDDTVFSSPVVETHMFGPNSDWNETTVNAASPTGATTRASLRMSQGGLCWETIIGQEITKLVTMDLYMTVASIFLIDFLRGLACRYLNLYWPWDLERTFPEYGEFKVAENVLHLVNNQGMIWLGLFFVPLLPMLNNIKLIILMYIRGWAAMTCNVPASQIFRASRSSNFFFALLILFLFLCTLPVGFVIASKTPSKSCGPFGNQSFFYSVITDVLHENLDKTLVNGIKYSLSPGIIIPVLVLLSLVIYFLIAMVTGLSQANQDLSFQLMVERTEEKKKIFELAGGKKKKSKDNTFGKQKPKQLLPPPTKGVSSDDDSQHNRSTAKSVSGRQFVPSLGSVSEVDHSTGEEQSSDSESTTSSLPPKLSLRQRFLVCIGWADPNKYGRHDDIEMEEGGGRLRELSTGSETDSDDEDSEKSNRDMSYRTAIQSFDQNSQSASASSSKSTTTAPSNSEMRIEITENPLHTYITPLRIEKKSSASSSSSSHQPSSSIEKQAARRLLQPISTTHNIRYGVATVENSSQDPTRPPSTDDSLGDPALHEPLWANLNPHSSYTSAMMSPIMNEVMSNDETTDDEKGRLIPDRPPIPHSPRELKRLKREKDQQSESGSKPSTPRPPRFRISMSPPRKPPSEKNDSDSSNRKYEMRVEKSPKKPKKSDND
In the case of B1, the binding result in assay [1] and in assay [2] was “binds” throughout.
